Experimental data: the supplement of paper PMC4604168 (melanoma cell lines)
The other results are listed elsewhere or left out. Single values are uncertain, as repeats are few or missing.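 The apoptosis fraction was the count of cleaved-PARP antibody-stained nuclei relative to all DNA-stained nuclei, imaged in 1,536-well plates. Screening doses were set so most cells survived, and baseline and induced cleaved-PARP levels vary greatly across cell lines.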

Assays:
Experiment in all cases: cleaved PARP positive nuclei fraction relative to DMSO control; melanoma cells; higher = more apoptosis
Conditions in all cases: library dose: low library concentration; 72 h
[1] = test system: 501Mel
[2] = test system: A101D
[3] = test system: A2058
[4] = test system: C32
[5] = test system: CBRC008 (line from a melanoma biopsy)
[6] = test system: CBRC014 (line from a melanoma biopsy)
[7] = test system: CBRC016 (line from a melanoma biopsy)
[8] = test system: CBRC017 (line from a melanoma biopsy)
[9] = test system: COLO792
[10] = test system: COLO800
[11] = test system: COLO829
[12] = test system: G361
[13] = test system: IPC-298
[14] = test system: IST-MEL1
[15] = test system: LB2518-MEL
[16] = test system: LOXIMVI

| Structure (SMILES) | cleaved PARP positive nuclei fraction [1] [%] | cleaved PARP positive nuclei fraction [2] [%] | cleaved PARP positive nuclei fraction [3] [%] | cleaved PARP positive nuclei fraction [4] [%] | cleaved PARP positive nuclei fraction [5] [%] | cleaved PARP positive nuclei fraction [6] [%] | cleaved PARP positive nuclei fraction [7] [%] | cleaved PARP positive nuclei fraction [8] [%] | cleaved PARP positive nuclei fraction [9] [%] | cleaved PARP positive nuclei fraction [10] [%] | cleaved PARP positive nuclei fraction [11] [%] | cleaved PARP positive nuclei fraction [12] [%] | cleaved PARP positive nuclei fraction [13] [%] | cleaved PARP positive nuclei fraction [14] [%] | cleaved PARP positive nuclei fraction [15] [%] | cleaved PARP positive nuclei fraction [16] [%] |
| --- | --- | --- | --- | --- | --- | --- | --- | --- | --- | --- | --- | --- | --- | --- | --- | --- |
| C[C@@H](N)c1ccc(C(=O)Nc2ccnc3[nH]ccc23)cc1 + CCCCCCCCCCCC1=C(O)C(=O)C=C(O)C1=O [Embelin] (first compound 0.4 µM, partner dose 1.2 µM) | 113 | 87.9 | 94 | 50.5 | 81.9 | 106 | 100 | 91 | 140 | 42.5 | 159 | 120 | 322 | 105 | 143 | 129 |
| CS(=O)(=O)c1ccc(C(=O)Nc2ccc(Cl)c(-c3ccccn3)c2)c(Cl)c1 [vismodegib] + COc1cc(N2CCC(N3CCN(C)CC3)CC2)ccc1Nc1ncc(Cl)c(Nc2ccccc2S(=O)(=O)C(C)C)n1 [NVP-TAE684] (first compound 1 µM, partner dose 0.08 µM) | 104 | 33.9 | 522 | 243 | 176 | 102 | 85.5 | 61.6 | 97.4 | 137 | 181 | 281 | 97.5 | 109 | 77.2 | 67.9 |
| CCN(CC)CCNC(=O)c1c(C)[nH]c(/C=C2\C(=O)Nc3ccc(F)cc32)c1C [sunitinib] + COc1ccc(-c2ccc3c(N4CCOCC4)nc(N4C[C@@H](C)O[C@@H](C)C4)nc3n2)cc1CO [KU0063794] (first compound 0.4 µM, partner dose 0.02 µM) | 148 | 51.7 | 149 | 80.6 | 76.2 | 118 | 16.5 | 105 | 116 | 51.8 | 57 | 107 | 67.6 | 91.9 | 67.8 | 36.4 |
| Cn1cnc2c(F)c(Nc3ccc(Br)cc3Cl)c(C(=O)NOCCO)cc21 [selumetinib] + COc1cc2ncnc(Nc3ccc(Oc4ccccc4)cc3)c2cc1OC [SrcI1] (first compound 0.015 µM, partner dose 2 µM) | 323 | 31.8 | 70.7 | 115 | 203 | 79.9 | 73 | 188 | 135 | 35.8 | 176 | 169 | 88.6 | 109 | 169 | 28.7 |
| CCN(CC)CCNC(=O)c1c(C)[nH]c(/C=C2\C(=O)Nc3ccc(F)cc32)c1C [sunitinib] + Oc1nc(-c2ccc(C(F)(F)F)cc2)nc2c1CSCC2 [XAV939] (first compound 0.4 µM, partner dose 2 µM) | 85.4 | 79.8 | 95.3 | 157 | 56.9 | 102 | 120 | 114 | 85.2 | 152 | 67.4 | 124 | 100 | 113 | 37.4 | 166 |
| CN(c1ncccc1CNc1nc(Nc2ccc3c(c2)CC(=O)N3)ncc1C(F)(F)F)S(C)(=O)=O + COc1ccc(-c2ccc3c(N4CCOCC4)nc(N4C[C@@H](C)O[C@@H](C)C4)nc3n2)cc1CO [KU0063794] (first compound 0.08 µM, partner dose 0.02 µM) | 56.4 | 7.75 | 73.5 | 113 | 267 | 119 | 15 | 71.3 | 140 | 23.7 | 223 | 165 | 100 | 123 | 80.6 | 86.7 |
| CC(=O)O[C@@]12CO[C@@H]1C[C@H](O)[C@@]1(C)C(=O)[C@H](O)C3=C(C)[C@@H](OC(=O)[C@H](O)[C@@H](NC(=O)OC(C)(C)C)c4ccccc4)C[C@@](O)([C@@H](OC(=O)c4ccccc4)[C@H]21)C3(C)C [Docetaxel] + CC(C)CCN1c2nc(Nc3cc(F)c(O)c(F)c3)ncc2N(C)C(=O)C1C [BID1870] (first compound 0.0001 µM, partner dose 0.2 µM) | 105 | 15.4 | 3600 | 390 | 645 | 255 | 82.3 | 355 | 492 | 527 | 652 | 672 | 123 | 91.3 | 108 | 131 |
| CCN(CC)CCNC(=O)c1c(C)[nH]c(/C=C2\C(=O)Nc3ccc(F)cc32)c1C [sunitinib] + O=c1cc(-c2cccc3c2Sc2ccccc2S3)oc(N2CCOCC2)c1 [KU55933] (first compound 0.4 µM, partner dose 1 µM) | 99.7 | 23.8 | 169 | 90.5 | 86 | 83.7 | 18.5 | 67.1 | 160 | 51.5 | 101 | 75.9 | 146 | 140 | 152 | 115 |
| CCCCCCCCc1ccc(CCC(N)(CO)CO)cc1 [fingolimod] + CC(C)CCN1c2nc(Nc3cc(F)c(O)c(F)c3)ncc2N(C)C(=O)C1C [BID1870] (first compound 2 µM, partner dose 0.2 µM) | 148 | 47.1 | 71.2 | 201 | 151 | 126 | 55.6 | 85.4 | 94.3 | 40.4 | 126 | 94.8 | 95.4 | 85 | 32 | 74.6 |
| CC1(C)CCC(c2ccc(Cl)cc2)=C(CN2CCN(c3ccc(C(=O)NS(=O)(=O)c4ccc(N[C@H](CCN5CCOCC5)CSc5ccccc5)c(S(=O)(=O)C(F)(F)F)c4)cc3)CC2)C1 + CC(C)CCN1c2nc(Nc3cc(F)c(O)c(F)c3)ncc2N(C)C(=O)C1C [BID1870] (first compound 0.4 µM, partner dose 0.2 µM) | 392 | 80.8 | 127 | 958 | 151 | 557 | 514 | 410 | 399 | 279 | 258 | 147 | 61 | 190 | 141 | 3520 |
| CS(=O)(=O)c1ccc(C(=O)Nc2ccc(Cl)c(-c3ccccn3)c2)c(Cl)c1 [vismodegib] + CCN(CC)CCCCNc1ncc2cc(-c3cc(OC)cc(OC)c3)c(NC(=O)NC(C)(C)C)nc2n1 [PD173074] (first compound 1 µM, partner dose 0.1 µM) | 125 | 26.9 | 47.2 | 71.6 | 30.2 | 102 | 62.9 | 104 | 26.8 | 223 | 171 | 96.8 | 124 | 56.7 | 61.4 | 161 |
| CC(=O)O[C@@]12CO[C@@H]1C[C@H](O)[C@@]1(C)C(=O)[C@H](O)C3=C(C)[C@@H](OC(=O)[C@H](O)[C@@H](NC(=O)OC(C)(C)C)c4ccccc4)C[C@@](O)([C@@H](OC(=O)c4ccccc4)[C@H]21)C3(C)C [Docetaxel] + Oc1nc(-c2ccc(C(F)(F)F)cc2)nc2c1CSCC2 [XAV939] (first compound 0.0001 µM, partner dose 2 µM) | 172 | 20.9 | 2710 | 308 | 292 | 178 | 133 | 137 | 697 | 594 | 185 | 344 | 412 | 159 | 118 | 141 |
| NC(=O)c1ccc(N(C(N)=O)c2c(F)cccc2F)nc1-c1ccc(F)cc1F + Cc1cc([N+](=O)[O-])ccc1NS(=O)(=O)c1cc(Cl)ccc1Cl [FH535] (first compound 0.4 µM, partner dose 1 µM) | 76.9 | 14.6 | 85.9 | 93.9 | 2070 | 207 | 1420 | 927 | 82.5 | 29.2 | 111 | 124 | 47.7 | 209 | 42.4 | 124 |
| Cn1cnc2c(F)c(Nc3ccc(Br)cc3Cl)c(C(=O)NOCCO)cc21 [selumetinib] + N#Cc1c(O)c2c(-c3ccc(-c4ccccc4O)cc3)csc2[nH]c1=O [A769662] (first compound 0.015 µM, partner dose 2 µM) | 65.5 | 19.1 | 57.4 | 94.3 | 189 | 79 | 95.5 | 85.9 | 74.4 | 59.5 | 74.1 | 201 | 90.7 | 26.1 | 99.5 | 125 |
| Cn1sc(=O)n(Cc2ccccc2)c1=O + COC(=O)c1sccc1S(=O)(=O)Nc1ccc(Nc2ccccc2)cc1OC [GSK0660] (first compound 0.4 µM, partner dose 1 µM) | 61.3 | 11.9 | 95.1 | 78.6 | 72.4 | 146 | 2400 | 86.4 | 50.4 | 204 | 98.3 | 246 | 192 | 99.6 | 44.4 | 144 |
| COc1ccc(C2=N[C@@H](c3ccc(Cl)cc3)[C@@H](c3ccc(Cl)cc3)N2C(=O)N2CCNC(=O)C2)c(OC(C)C)c1 [Nutlin-3] + COc1ccc(COc2ccc(Cc3cnc(N)nc3N)cc2OC)cc1 [GW2580] (first compound 0.1 µM, partner dose 1 µM) | 131 | 31.3 | 59.7 | 70.3 | 139 | 94.6 | 50 | 186 | 193 | 70.8 | 211 | 55.6 | 92.9 | 50.6 | 182 | 69.9 |
| CC(=O)O[C@@]12CO[C@@H]1C[C@H](O)[C@@]1(C)C(=O)[C@H](O)C3=C(C)[C@@H](OC(=O)[C@H](O)[C@@H](NC(=O)OC(C)(C)C)c4ccccc4)C[C@@](O)([C@@H](OC(=O)c4ccccc4)[C@H]21)C3(C)C [Docetaxel] + Cn1cc(/C=C2\C(=O)Nc3cccnc32)c2ccccc21 [GW441756] (first compound 0.0001 µM, partner dose 0.4 µM) | 249 | 29.8 | 3630 | 361 | 271 | 147 | 184 | 115 | 526 | 298 | 118 | 1100 | 239 | 132 | 119 | 40.9 |

Reformatted: results already given.
Structure (SMILES)	cleaved PARP positive nuclei fraction [1] [%]	cleaved PARP positive nuclei fraction [2] [%]	cleaved PARP positive nuclei fraction [3] [%]	cleaved PARP positive nuclei fraction [4] [%]	cleaved PARP positive nuclei fraction [5] [%]	cleaved PARP positive nuclei fraction [6] [%]	cleaved PARP positive nuclei fraction [7] [%]	cleaved PARP positive nuclei fraction [8] [%]	cleaved PARP positive nuclei fraction [9] [%]	cleaved PARP positive nuclei fraction [10] [%]	cleaved PARP positive nuclei fraction [11] [%]	cleaved PARP positive nuclei fraction [12] [%]	cleaved PARP positive nuclei fraction [13] [%]	cleaved PARP positive nuclei fraction [14] [%]	cleaved PARP positive nuclei fraction [15] [%]	cleaved PARP positive nuclei fraction [16] [%]
C[C@@H](N)c1ccc(C(=O)Nc2ccnc3[nH]ccc23)cc1 + CCCCCCCCCCCC1=C(O)C(=O)C=C(O)C1=O [Embelin] (first compound 0.4 µM, partner dose 1.2 µM)	113	87.9	94	50.5	81.9	106	100	91	140	42.5	159	120	322	105	143	129
CS(=O)(=O)c1ccc(C(=O)Nc2ccc(Cl)c(-c3ccccn3)c2)c(Cl)c1 [vismodegib] + CCN(CC)CCCCNc1ncc2cc(-c3cc(OC)cc(OC)c3)c(NC(=O)NC(C)(C)C)nc2n1 [PD173074] (first compound 1 µM, partner dose 0.1 µM)	125	26.9	47.2	71.6	30.2	102	62.9	104	26.8	223	171	96.8	124	56.7	61.4	161
